Test results published in paper PMC6572618, “Anti-Trypanosomal and Antimalarial Properties of Tetralone Derivatives and Structurally Related Benzocycloalkanones” (Medicina, 2019).

What was measured:
Type in all cases: cell-based
[1] = test system: chloroquine sensitive strain of P. falciparum (3D7); experiment: In vitro antiplasmodial assay (parasite lactate dehydrogenase, pLDH)
Experimental: An antimalarial evaluation was performed against the chloroquine sensitive strain of P. falciparum (3D7) using the parasite lactate dehydrogenase (pLDH) assay as previously reported. Parasites were seeded at 2% parasitemia and 1% hematocrit in 96 well plates and were incubated with 20 µM of the test compounds for 48 h in culture medium consisting of Rosell Park Memorial Institute (RPMI 1640; Lonza, Basel, Switzerland) containing 25 mM 4-(2-hydroxyethyl)-1-piperazineethanesulfonic acid (HEPES), supplemented with 0.5% (w/v) Albumax II, 22 mM glucose, 0.65 mM hypoxanthine, 0.05mg/mL gentamicin, and 1% (v/v) human erythrocytes, at 37 °C under an atmosphere of 5% CO2, 5% O2, and 90% N2. The parasite lactate dehydrogenase activity in the wells was determined using the colorimetric assay method of Makler et al.. The absorbance readings were converted to % parasite viability relative to the wells containing untreated parasites.
(§1) Thirty-five tetralone derivatives (see Figure 2) and six related benzocycloalkanones (see Figure 3) were evaluated in vitro against T. b. brucei for antitrypanosomal activity through the resazurin assay protocol. The compounds were also evaluated against the chloroquine-sensitive strain (3D7) of P. falciparum for antimalarial activity using pLDH assay and against the HeLa cell line for cytotoxicity evaluation using the resazurin assay protocol. […]

[2] = test system: HeLa cells; experiment: In vitro cytotoxicity assay (resazurin); conditions: 20 µM compound, 24 h, % cell viability relative to untreated control
Experimental: As previously described, HeLa cells (Cellonex, Johannesburg, South Africa) were seeded in 96-well plates at a density of 2 × 10^4 cells/well in Dulbecco’s modified Eagle’s medium (DMEM) (Lonza, Basel, Switzerland) supplemented with 10% fetal calf serum and antibiotics (penicillin/streptomycin/amphotericin B) and incubated overnight at 37 °C in a 5% CO2 incubator. Compounds were added to the cells at a final concentration of 20 µM, and incubation continued for 24 h. The cell viability in the wells was assessed by adding 20 µL of resazurin reagent (0.135 mg/mL resazurin in phosphate-buffered saline) and reading the fluorescence (Ex560/Em590) after an additional 2–4 h incubation. The fluorescence readings were converted to % cell viability relative to the average readings obtained from the untreated control wells.
as §1

[3] = test system: 427 Trypanosoma brucei brucei trypomastigotes; experiment: In vitro anti-trypanosomal assay (resazurin); conditions: 20 µM compound, 48 h, % parasite viability relative to untreated control
Experimental: The activity of the compounds against 427 Trypanosoma brucei brucei trypomastigotes was determined as previously described. Briefly, parasites were incubated in 96-well plates with 20 µM or three-fold serial dilutions (100 µM starting concentration) of test compounds in Iscove’s modified Dulbecco’s medium (IMDM) (Lonza, Basel, Switzerland) supplemented with 10% fetal calf serum, HMI-9 supplement, hypoxanthine, and penicillin/streptomycin at 37 °C in a 5% CO2 incubator. After 48 h, 20 µL of resazurin reagent (0.135 mg/mL resazurin in phosphate-buffered saline) was added to each well and the fluorescence (Ex560/Em590) read after 2–4 h in a Spectramax M3 plate reader (Molecular Devices, San Jose, CA, USA). The fluorescence readings were used to calculate % parasite viability relative to the readings obtained from the wells containing untreated control parasite cultures. The IC50 values were determined by plotting % viability vs. log(compound) and performing a non-linear regression using a GraphPad Prism (v. 5.02) (San Diego, CA, USA).
Thirty-five tetralone derivatives (see Figure 2) and six related benzocycloalkanones (see Figure 3) were evaluated in vitro against T. b. brucei for antitrypanosomal activity through the resazurin assay protocol. […]

COc1ccc2c(c1)C(=O)/C(=C/c1ccncc1)CC2 [Compound 32]
% Viability at 20 µM (SD) 3D7 [1]: 36 (12) % | % Viability at 20 µM (SD) HeLa Cell [2]: 23 (2) % | % Viability at 20 µM (SD) T.b. brucei [3]: −0.1 (0.7) %
